Source: patent publication US20240254182A1 (PROVINCIAL HEALTH SERVICES AUTHORITY, published 2024)

Amino acid sequences for entries named in this document (tags omitted). A change or cut given only in a name is not applied to a line headed by its entry.
UniProt Q99062: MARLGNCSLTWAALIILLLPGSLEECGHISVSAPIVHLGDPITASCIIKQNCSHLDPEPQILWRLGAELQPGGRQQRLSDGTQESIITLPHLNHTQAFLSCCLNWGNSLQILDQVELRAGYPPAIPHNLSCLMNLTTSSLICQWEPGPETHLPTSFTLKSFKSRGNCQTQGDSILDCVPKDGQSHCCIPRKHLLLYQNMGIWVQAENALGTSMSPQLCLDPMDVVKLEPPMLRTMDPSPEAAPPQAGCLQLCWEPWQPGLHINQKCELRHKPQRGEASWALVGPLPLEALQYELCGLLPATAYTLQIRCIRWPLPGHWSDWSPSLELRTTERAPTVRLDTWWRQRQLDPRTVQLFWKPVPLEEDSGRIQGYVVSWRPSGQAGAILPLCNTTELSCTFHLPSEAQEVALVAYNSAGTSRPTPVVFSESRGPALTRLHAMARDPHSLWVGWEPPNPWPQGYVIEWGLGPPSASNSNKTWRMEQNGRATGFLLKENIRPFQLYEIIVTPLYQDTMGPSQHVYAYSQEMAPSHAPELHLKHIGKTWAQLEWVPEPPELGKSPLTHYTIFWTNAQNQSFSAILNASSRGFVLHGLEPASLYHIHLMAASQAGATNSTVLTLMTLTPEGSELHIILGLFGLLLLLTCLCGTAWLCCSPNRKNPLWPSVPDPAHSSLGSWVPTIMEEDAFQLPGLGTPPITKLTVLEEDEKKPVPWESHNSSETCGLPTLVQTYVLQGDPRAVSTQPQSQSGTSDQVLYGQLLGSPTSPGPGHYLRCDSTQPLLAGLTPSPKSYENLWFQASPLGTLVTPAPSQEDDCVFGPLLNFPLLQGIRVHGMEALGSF

Biological target: T1, WT G-CSFR(CRH) with N-terminal hexahistidine tag (human, UniProt Q99062 120-331)
T1 construct: CRH domain only, no Ig domain; also called G-CSFR(CRH)WT; WT receptor
T1 chain: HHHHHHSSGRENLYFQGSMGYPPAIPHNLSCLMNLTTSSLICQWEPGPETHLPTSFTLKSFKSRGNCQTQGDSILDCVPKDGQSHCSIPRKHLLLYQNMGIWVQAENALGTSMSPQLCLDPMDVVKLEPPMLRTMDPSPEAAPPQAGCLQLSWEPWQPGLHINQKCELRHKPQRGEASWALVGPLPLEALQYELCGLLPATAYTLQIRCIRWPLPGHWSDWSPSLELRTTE
Test: variant G-CSF co-expressed with WT G-CSFR(CRH) in insect cells, pulldown via the Twin Strep tag on G-CSF, reducing SDS-PAGE
Experimental: The P2 viral stocks were tested for protein expression in small-scale. P2 virus was used to co-infect G-CSFE mutants with their corresponding G-CSFRE mutant in Trichoplusia ni (Tni) cells in 12-well plates. Separate co-infections for each design mutant were performed using the P2 stocks of G-CSFWT and GCSFR(CRH)WT, as well as for G-CSFE mutants alone. For each reaction, 2 mL of healthy log-phase Tni at 2×10⁶ cells ml⁻¹ was inoculated with 20 μl P2 virus. Plates were incubated at 27° C. for approximately 70 h with shaking at 135 rpm. […] Briefly, to each 1.8 mL reaction supernatant 0.2 mL 10× HEPES Buffered Saline (HBS: 20 mM HEPES pH8, 150 mM NaCl) was added to 1×, 20 μl bed volume (b.v) of purification beads added and reactions incubated for 30 minutes with end-over-end mixing at 24° C. An additional 20 μl b.v of purification beads was added followed by a second 30 minute incubation. Beads were pelleted by centrifugation at 2200 rpm for 3 minutes, supernatant was removed and the beads washed with 1× HBS buffer.

B1: site II design 34 G-CSFE with C-terminal Twin Strep tag (ligand)
chain: TPLGPASSLPQSFLLKCLEQVRKIQGDGAALQEKLCATYKLCHPEELVLLGHSLGIPWAPLSSCPSQALQLAGCLSQLHSGLFLYQGLLQALEGISPELGPTLDTLQKDVARFATTIWQQMRRLGMAPALQPTQGAMPAFASAFQRRAGGVLVASHLQSFLEVSYRVLRHLAQAAAENLYFQGSAWSHPQFEKGGGSGGGSGGSAWSHPQFEK
- binding result: no binding
